# In US20210261642A1, “SOLUBILITY OF GLP-1 PEPTIDE” (Novo Nordisk A/S, priority 2017, published 2021):
# This continues a long series; more values of the same kind are listed elsewhere.
# Assay: Assay (I): Determination of Solubility (96-well plate, pH 3.0-11.0, organic solvent 0-70% w/w, UV absorption at 280 nm)
# Type: physicochemical
# Conditions: MeCN 50.9% w/w, Method 1
# Protocol: Assay (I): Determination of Solubility
# 96-Well Plate Preparation
# 96-well plates containing target peptide in a solid form were prepared in one of two ways:
# Method 1 (evaporation): Addition of 100 μl stock solution of said peptide at a concentration of 4-6 mg/ml to each well of a 96-well half area plate (150 μl well size). Subsequently the solvent was evaporated by applying a vacuum until the solvent was completely removed.
# Method 2 (precipitation): Addition of a certain volume of a stock solution of said peptide containing to each well of a 96-well half area plate followed by the addition of a certain volume of concentrated phosphoric acid to obtain a pH of 4.6 followed by addition of a certain volume of ethanol resulting in a final ethanol concentration of 20% v/v. Subsequently the plate was stored at 4° C. for 1 h and then centrifuged at 4,000 rpm for 20 min. Finally the supernatant was removed. The concentration of the stock solution was chosen in a way that the final amount of peptide after supernatant removal was >0.4 mg per well.
# In both cases the stock solution was prepared by adding de-ionized water to a certain amount of powder of said peptide followed by a stepwise addition of small amounts of a concentrated sodium hydroxide solution until said peptide was completely in solution.
# To determine solubility of a target peptide at different pH and organic solvent concentrations, two different buffer systems were used in independent experiments to cover the whole range from pH 3.0 to pH 11.0. Buffer system 1 covers pH 3.0-7.5 and buffer system 2 covers pH 7.5-11.0. For each buffer system 96 different solvent compositions were premixed in the following way: • 1. A low pH buffer (adjusted to either pH 3.0 or pH 7.5) and a high pH buffer (adjusted to either pH 7.5 or pH 11.0) were mixed at 8 different ratios to obtain values between pH 3.0 and pH 7.5 or pH 7.5 and pH 11.0, respectively. The total volume after mixing was 300 μl. • 2. 12 different amounts of organic solvent were then added to these buffers to obtain organic solvent (e.g. ethanol) concentrations between 0 and 70% w/w. • 3. Water was then added to obtain a total weight of 1.0 g of solvent in each well.
# After preparing the 96 different solvent systems, 100 μl of each system was transferred to the 96-well plate containing the solid form of the target peptide (prepared as described in the section “96-well plate preparation”). The plate was then stored at a given temperature (between 5° C. and 70° C.) for a given time on a rotating shaker set to 400 rpm. At regular time intervals the plate was centrifuged (4,000 rpm for 10 min) and a 10 μl sample was taken from each well. The samples were then analysed by UV absorption at 280 nm for peptide quantification. Peptide concentration results are given as UV absorption at 280 nm of the sample subtracted UV absorption at 280 nm of a well comprising 10 μl water.
# The buffers used were as follows: • Buffer system 1 (for the pH range from pH 3.0-7.5)
# • Buffer system 2 (for the pH ranae from pH 7.5-11.0)
# Solubility of liraglutide was determined using Assay (I) described herein. Liraglutide was prepared using Method 1 (evaporation) or Method 2 (precipitation) as described in subsection “96-well plate preparation”.
smiles,measurement,setting,value
"CCCCCCCCCCCCCCCC(=O)N[C@@H](CCC(=O)NCCCC[C@H](NC(=O)[C@H](C)NC(=O)[C@H](C)NC(=O)[C@H](CCC(N)=O)NC(=O)CNC(=O)[C@H](CCC(=O)O)NC(=O)[C@H](CC(C)C)NC(=O)[C@H](Cc1ccc(O)cc1)NC(=O)[C@H](CO)NC(=O)[C@H](CO)NC(=O)[C@@H](NC(=O)[C@H](CC(=O)O)NC(=O)[C@H](CO)NC(=O)[C@@H](NC(=O)[C@H](Cc1ccccc1)NC(=O)[C@@H](NC(=O)CNC(=O)[C@H](CCC(=O)O)NC(=O)[C@H](C)NC(=O)[C@@H](N)Cc1cnc[nH]1)[C@@H](C)O)[C@@H](C)O)C(C)C)C(=O)N[C@@H](CCC(=O)O)C(=O)N[C@@H](Cc1ccccc1)C(=O)N[C@H](C(=O)N[C@@H](C)C(=O)N[C@@H](Cc1c[nH]c2ccccc12)C(=O)N[C@@H](CC(C)C)C(=O)N[C@H](C(=O)N[C@@H](CCCNC(=N)N)C(=O)NCC(=O)N[C@@H](CCCNC(=N)N)C(=O)NCC(=O)O)C(C)C)[C@@H](C)CC)C(=O)O [liraglutide, Arg34,Lys26-(N-epsilon-(gamma-L-glutamyl(N-alfa-hexadecanoyl)))-GLP-1(7-37)]",Peptide concentration after 5 min,"pH 3.0, 70° C.",1.0 mg/mL
same,Peptide concentration after 5 min,"pH 3.0, RT",0.6 mg/mL
same,Peptide concentration after 180 min,"pH 3.0, RT",1.2 mg/mL
same,Peptide concentration after 24 h,"pH 3.0, RT",0.1 mg/mL
same,Peptide concentration after 5 min,"pH 3.6, 5° C.",0.2 mg/mL
same,Peptide concentration after 180 min,"pH 3.6, 5° C.",0.5 mg/mL
same,Peptide concentration after 24 h,"pH 3.6, 5° C.",0.7 mg/mL
same,Peptide concentration after 5 min,"pH 3.6, 70° C.",0.5 mg/mL
same,Peptide concentration after 180 min,"pH 3.6, 70° C.",0.9 mg/mL
same,Peptide concentration after 5 min,"pH 3.6, RT",0.3 mg/mL
same,Peptide concentration after 180 min,"pH 3.6, RT",0.4 mg/mL
same,Peptide concentration after 24 h,"pH 3.6, RT",0.4 mg/mL
same,Peptide concentration after 5 min,"pH 4.3, 5° C.",0.2 mg/mL
same,Peptide concentration after 180 min,"pH 4.3, 5° C.",0.3 mg/mL
same,Peptide concentration after 24 h,"pH 4.3, 5° C.",0.4 mg/mL
same,Peptide concentration after 5 min,"pH 4.3, 70° C.",0.6 mg/mL
same,Peptide concentration after 180 min,"pH 4.3, 70° C.",0.9 mg/mL
same,Peptide concentration after 5 min,"pH 4.3, RT",0.2 mg/mL
same,Peptide concentration after 180 min,"pH 4.3, RT",0.3 mg/mL
same,Peptide concentration after 24 h,"pH 4.3, RT",0.2 mg/mL
same,Peptide concentration after 5 min,"pH 4.9, 5° C.",0.3 mg/mL
same,Peptide concentration after 180 min,"pH 4.9, 5° C.",0.4 mg/mL
same,Peptide concentration after 24 h,"pH 4.9, 5° C.",0.3 mg/mL
same,Peptide concentration after 5 min,"pH 4.9, 70° C.",0.5 mg/mL
same,Peptide concentration after 180 min,"pH 4.9, 70° C.",0.9 mg/mL
same,Peptide concentration after 5 min,"pH 4.9, RT",0.2 mg/mL
same,Peptide concentration after 180 min,"pH 4.9, RT",0.3 mg/mL
same,Peptide concentration after 24 h,"pH 4.9, RT",0.2 mg/mL
same,Peptide concentration after 5 min,"pH 5.6, 5° C.",0.4 mg/mL
same,Peptide concentration after 180 min,"pH 5.6, 5° C.",0.7 mg/mL
same,Peptide concentration after 24 h,"pH 5.6, 5° C.",0.6 mg/mL
same,Peptide concentration after 5 min,"pH 5.6, 70° C.",1.0 mg/mL
same,Peptide concentration after 180 min,"pH 5.6, 70° C.",1.5 mg/mL
same,Peptide concentration after 5 min,"pH 5.6, RT",0.5 mg/mL
same,Peptide concentration after 180 min,"pH 5.6, RT",0.7 mg/mL
same,Peptide concentration after 24 h,"pH 5.6, RT",0.4 mg/mL
same,Peptide concentration after 5 min,"pH 6.2, 5° C.",0.6 mg/mL
same,Peptide concentration after 180 min,"pH 6.2, 5° C.",0.9 mg/mL
same,Peptide concentration after 24 h,"pH 6.2, 5° C.",0.9 mg/mL
same,Peptide concentration after 5 min,"pH 6.2, 70° C.",1.0 mg/mL
same,Peptide concentration after 180 min,"pH 6.2, 70° C.",2.0 mg/mL
same,Peptide concentration after 5 min,"pH 6.2, RT",0.7 mg/mL
same,Peptide concentration after 180 min,"pH 6.2, RT",0.8 mg/mL
same,Peptide concentration after 24 h,"pH 6.2, RT",0.7 mg/mL
same,Peptide concentration after 5 min,"pH 6.9, 5° C.",0.6 mg/mL
same,Peptide concentration after 180 min,"pH 6.9, 5° C.",1.4 mg/mL
same,Peptide concentration after 24 h,"pH 6.9, 5° C.",1.7 mg/mL
same,Peptide concentration after 5 min,"pH 6.9, 70° C.",2.2 mg/mL
same,Peptide concentration after 180 min,"pH 6.9, 70° C.",3.6 mg/mL
